Reference: PubChem BioAssay AID1688 (National Center for Advancing Translational Sciences (NCATS), 2009)
Hit rate of the full screen: of about 220,000 compounds, about 2,400 (1.1%) were called active. Inconclusive means that the source gave no clear call. Such entries were picked first, then a sample of the others. Calls follow the shape of the dose curve; as a rule, active = well fitted inhibition curve with a large enough effect; inconclusive = small, poorly fitted or top-dose-only effect, or effect the other way; inactive = no such curve, though single readings can be large or run the other way. Potencies of inconclusive entries are doubtful fits and often do not repeat.

Experiment: qHTS Multiplex Assay to Identify Dual Action Probes in a Cell Model of Huntington: Aggregate Formation (GFP); also: nearly all actives have a fitted effect of over 60% in size
Conditions: PC12 HttQ103-GFP aggregates, Acumen cytometry, 40 h; activity change, negative = inhibition: at 46.1 µM (top of the series) unless noted
How it was run: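 Using laser scanning cytometry, GFP-positive aggregates were counted after lysis of PC12 cells induced with 100 nM tebufenozide to express HTT exon 1 Q103–GFP. Compounds were tested in titration.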
% is scaled to controls: 0 for no effect and ±100 for the full control effect; potency is read from the fitted curve at half-maximal effect.

Q: For Cc1ccc(-c2nnc(SCC(=O)N/N=C/c3c(C)nn(-c4ccccc4)c3C)n2-c2ccc(C)cc2)cc1, which Potency is on record?
A: Its Potency is inconclusive: 35.5 µM [inhibitor, single point].

Q: Which Potency does the source give for CC(/C=C/c1ccco1)=N/NC(=O)Cc1cccs1 here?
A: The Potency was inconclusive: 10 µM [activator, partial curve].

Q: Which “activity change, negative = inhibition” value does the source give for CN1C2=NCCN2C(=O)c2ccccc21 here?
A: Its value is inactive: 8.02%.

Q: With COc1cc2c(C(=O)N3CCN(c4ccccc4)CC3)c(C)oc2cc1Br as the compound, how does the Potency read?
A: The Potency was inconclusive: 35.5 µM [inhibitor, single point].

Q: With O=C(/C=C/c1ccc(-c2ccccc2[N+](=O)[O-])o1)c1ccc(Br)cc1 as the compound, how does the “activity change, negative = inhibition” value read?
A: Its value is inactive: -21.7%.

Q: For CCOC(=O)c1c(C)[nH]c(N=Nc2ccc(C)cc2C)c1C, which Potency is on record?
A: Its Potency is inconclusive: 5.62 µM [inhibitor, single point].

Q: With CC(C)Cc1nnc(NC(=O)CSc2nc(O)c(Cc3ccccc3)c(=O)[nH]2)s1 as the compound, how does the Potency read?
A: The Potency was inconclusive: 6.31 µM [activator, single point].

Q: For Nc1ccc(C(=O)OCc2csc(-c3ccccc3)n2)cc1[N+](=O)[O-], which “activity change, negative = inhibition” value is on record?
A: Its value is inactive: 2.17%.

Q: With COc1ccc(OC)c(N/C=C2/CCCCC2=O)c1 as the compound, how does the “activity change, negative = inhibition” value read?
A: The value was inactive: 18.5%.

Q: Which Potency does the source give for O=C(COc1ccc(S(=O)(=O)N2CCOCC2)cc1)Nc1ccc(Cl)c(C(F)(F)F)c1 here?
A: Its Potency is inconclusive: 35.5 µM [inhibitor, single point].

Q: For O=C(CN(Cc1ccco1)C(=O)c1ccccc1)Nc1ccc(Cl)c(Cl)c1, which Potency is on record?
A: The Potency was inconclusive: 15.8 µM [inhibitor, single point].

Q: Which Potency does the source give for CCOc1cc(/C=C\c2[nH]c(=O)[nH]c(=O)c2[N+](=O)[O-])ccc1OC(C)CC (stereo not drawn) here?
A: Its Potency is inconclusive: 3.16 µM [activator, single point].

Q: With O=C(c1ccc(F)cc1)N1CCN(c2cc(N3CCCCC3)c(F)cc2[N+](=O)[O-])CC1 as the compound, how does the Potency read?
A: The Potency was inconclusive: 35.5 µM [inhibitor, single point].

Q: With O=C(NCc1ccco1)c1ccccc1NS(=O)(=O)c1ccc(Br)s1 as the compound, how does the Potency read?
A: The Potency was active: 17.8 µM.

Q: Which Potency does the source give for Cc1cccc(N/N=C(\C(N)=O)C2=NC(C)(C)Cc3ccccc32)c1 here?
A: The Potency was inconclusive: 11.2 µM [inhibitor, single point].

Q: With CCOC(=O)C1=C(N)Oc2cc(O)ccc2C1c1ccc([N+](=O)[O-])cc1 (stereo not drawn) as the compound, how does the activity change, negative = inhibition read?
A: The activity change, negative = inhibition was inactive: -2.99% [at 9.22 µM].

Q: For CCOC(=O)c1ccc(NC(=O)CCNS(=O)(=O)c2ccc3c(c2)oc(=O)n3C)cc1, which “activity change, negative = inhibition” value is on record?
A: Its value is inactive: -9.4%.

Q: For O=C1CC(N2CCN(Cc3ccc4c(c3)OCO4)CC2)C(=O)N1CCc1ccccc1 (stereo not drawn), which Potency is on record?
A: The Potency was inconclusive: 25.1 µM [inhibitor, partial curve].

Q: For Cc1cc(C)cc(N2C(=O)CC(N3CCOCC3)C2=O)c1 (stereo not drawn), which Potency is on record?
A: The Potency was inconclusive: 2.24 µM [activator, partial curve].

Q: For CC(=O)c1cccc(NC(=O)c2ccc(NS(C)(=O)=O)cc2)c1, which “activity change, negative = inhibition” value is on record?
A: Its value is inactive: 0.269%.

Q: With Cc1csc2c(N3CCN(C(=O)Nc4ccccc4)CC3)ncnc12 as the compound, how does the activity change, negative = inhibition read?
A: Its activity change, negative = inhibition is inactive: 14.5% [at 9.22 µM].

Q: With COc1cccc(N=CC2=C(O)CC(C)(C)CC2=O)c1 as the compound, how does the Potency read?
A: Its Potency is inconclusive: 12.6 µM [inhibitor, single point].

Q: Which “activity change, negative = inhibition” value does the source give for COc1ccc(NC(=O)CS(=O)CC(=O)Nc2cc(Cl)ccc2OC)cc1 (stereo not drawn) here?
A: Its value is inactive: -5.67%.

Q: With CC1Cc2ccccc2N1C(=O)CSc1nnnn1-c1ccc2c(c1)OCCO2 (stereo not drawn) as the compound, how does the Potency read?
A: Its Potency is inconclusive: 10 µM [inhibitor, single point].

Q: For Cc1ccc(S(=O)(=O)CCC(=O)OCC(=O)Nc2ncc(Cl)cc2Cl)cc1, which Potency is on record?
A: The Potency was inconclusive: 0.562 µM [activator, full curve, poor fit].

Q: Which “activity change, negative = inhibition” value does the source give for C[C@H](CCCC(C)(C)O)[C@H]1CC[C@H]2[C@@H]3CC=C4C[C@@H](O)CC[C@]4(C)[C@H]3CC[C@]12C here?
A: Its value is inactive: -15.2%.

Q: For CCCCn1nc2cc(C(=O)NCC34CC5CC(CC(C5)C3)C4)ccc2c1OCC, which Potency is on record?
A: Its Potency is inconclusive: 35.5 µM [inhibitor, single point].

Q: With CN(C)c1ccc(N=C/C=C2/N(C)c3ccccc3C2(C)C)cc1 as the compound, how does the Potency read?
A: Its Potency is inconclusive: 35.5 µM [activator, single point].

Q: Which Potency does the source give for O=C(Nc1cccc2[nH]ncc12)c1ccc(F)cc1 here?
A: Its Potency is active: 5.01 µM.

Q: With Cn1nc(C(=O)Nc2ccc(S(=O)(=O)N3CCOCC3)cc2)c2ccccc2c1=O as the compound, how does the “activity change, negative = inhibition” value read?
A: Its value is inactive: 14.9%.

Q: With O=C(c1ccccc1)C1C(=O)c2ccccc2C1=O as the compound, how does the Potency read?
A: Its Potency is inconclusive: 31.6 µM [inhibitor, single point].

Q: With Cc1oc2c(c1C(=O)c1ccccc1)C(=O)C(=O)c1ccccc1-2 as the compound, how does the Potency read?
A: The Potency was inconclusive: 35.5 µM [inhibitor, single point].

Q: For COc1ccc(CCn2c(C)cc(C(=O)CCl)c2C)cc1OC, which Potency is on record?
A: Its Potency is inconclusive: 22.4 µM [inhibitor, single point].

Q: With CCOC(=O)c1cnc2ccc(Cl)cc2c1Nc1ccc(S(=O)(=O)Nc2ncccn2)cc1 as the compound, how does the Potency read?
A: The Potency was inconclusive: 1.12 µM [activator, single point].

Q: Which Potency does the source give for CC(Sc1nc2ccccc2n1C)C(=O)NC(c1ccccc1)c1ccccc1 (stereo not drawn) here?
A: The Potency was inconclusive: 35.5 µM [inhibitor, single point].

Q: For CCNc1nc(NCC)nc(Oc2ccc(OCC)nn2)n1, which Potency is on record?
A: The Potency was inconclusive: 7.08 µM [activator, partial curve].

Q: With O=C1C(=O)N(CC(=O)N2CCCC2)c2ccccc21 as the compound, how does the “activity change, negative = inhibition” value read?
A: Its value is inactive: 9.38%.

Q: Which “activity change, negative = inhibition” value does the source give for COc1ccccc1N1CCN(C(=O)CSc2nc(-c3ccco3)cc(C(F)(F)F)n2)CC1 here?
A: Its value is inactive: -5.43%.

Q: Which Potency does the source give for O=C(N/N=C/c1ccc([N+](=O)[O-])o1)c1cc(-c2ccncc2)nc2ccccc12 here?
A: Its Potency is inconclusive: 35.5 µM [inhibitor, single point].

Q: For CCN(CC)c1ccc(NC(=O)C2CCCN(S(=O)(=O)c3cnc[nH]3)C2)c(C)c1 (stereo not drawn), which Potency is on record?
A: Its Potency is inconclusive: 35.5 µM [activator, single point].

Q: For O=C(c1ccc(Cl)cc1)C(Cn1cncn1)C(Sc1ccccc1)c1ccccc1 (stereo not drawn), which Potency is on record?
A: Its Potency is inconclusive: 14.1 µM [inhibitor, single point].

Q: For O=C(NC(=S)Nc1cccc(-c2ccc(CO)o2)c1)c1cccs1, which Potency is on record?
A: The Potency was inconclusive: 35.5 µM [activator, single point].

Q: For CCOc1cc(/C=C/c2nc3ccccc3s2)ccc1OCC(=O)N1CCOCC1, which Potency is on record?
A: The Potency was inconclusive: 28.2 µM [inhibitor, single point].
